According to the supplement of paper PMC10849652:
The other results are listed elsewhere or left out.

Chains of the proteins cited; added tags and fusions are not shown. Lines headed by an entry give the natural chain unless they say otherwise; changes in a name come on top.
UniProt P49903: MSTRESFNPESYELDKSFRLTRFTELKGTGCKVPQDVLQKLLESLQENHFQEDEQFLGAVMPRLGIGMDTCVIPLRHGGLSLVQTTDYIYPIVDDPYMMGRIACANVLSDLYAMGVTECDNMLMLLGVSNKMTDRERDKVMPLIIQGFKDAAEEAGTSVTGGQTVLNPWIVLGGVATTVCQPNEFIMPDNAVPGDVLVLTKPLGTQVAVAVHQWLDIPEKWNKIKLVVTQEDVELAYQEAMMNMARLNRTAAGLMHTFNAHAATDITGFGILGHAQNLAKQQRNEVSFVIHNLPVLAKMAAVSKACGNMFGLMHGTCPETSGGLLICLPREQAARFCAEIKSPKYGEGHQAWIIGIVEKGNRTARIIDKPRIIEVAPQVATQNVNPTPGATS
UniProt Q9UGK8: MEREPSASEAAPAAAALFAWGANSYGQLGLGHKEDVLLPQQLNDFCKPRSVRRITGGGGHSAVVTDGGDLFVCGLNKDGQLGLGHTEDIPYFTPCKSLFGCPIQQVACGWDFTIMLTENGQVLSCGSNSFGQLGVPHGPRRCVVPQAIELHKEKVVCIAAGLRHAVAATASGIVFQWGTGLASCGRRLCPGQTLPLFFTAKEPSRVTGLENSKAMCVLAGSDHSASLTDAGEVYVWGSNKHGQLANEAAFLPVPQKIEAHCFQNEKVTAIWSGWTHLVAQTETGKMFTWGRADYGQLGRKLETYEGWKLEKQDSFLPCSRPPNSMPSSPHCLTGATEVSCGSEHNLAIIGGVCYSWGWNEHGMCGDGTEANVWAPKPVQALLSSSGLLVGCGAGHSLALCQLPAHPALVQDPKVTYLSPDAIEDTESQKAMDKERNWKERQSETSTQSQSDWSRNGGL
UniProt Q15637: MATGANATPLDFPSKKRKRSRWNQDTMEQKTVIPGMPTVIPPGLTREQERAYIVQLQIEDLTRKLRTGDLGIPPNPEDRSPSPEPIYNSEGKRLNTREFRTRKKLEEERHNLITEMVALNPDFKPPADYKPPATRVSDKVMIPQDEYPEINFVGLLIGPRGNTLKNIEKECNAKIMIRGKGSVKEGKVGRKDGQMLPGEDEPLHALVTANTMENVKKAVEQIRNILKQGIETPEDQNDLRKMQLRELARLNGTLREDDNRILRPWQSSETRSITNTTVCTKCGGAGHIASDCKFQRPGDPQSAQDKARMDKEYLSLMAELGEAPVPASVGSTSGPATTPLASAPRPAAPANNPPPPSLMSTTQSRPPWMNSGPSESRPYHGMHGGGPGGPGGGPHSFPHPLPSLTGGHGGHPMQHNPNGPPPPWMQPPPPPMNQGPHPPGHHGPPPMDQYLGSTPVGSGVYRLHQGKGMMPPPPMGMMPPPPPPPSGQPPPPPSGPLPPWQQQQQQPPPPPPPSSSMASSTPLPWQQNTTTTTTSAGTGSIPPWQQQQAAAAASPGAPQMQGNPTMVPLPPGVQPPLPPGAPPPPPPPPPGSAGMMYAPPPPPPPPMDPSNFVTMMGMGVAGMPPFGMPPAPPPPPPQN
UniProt Q9C0C4, whole entry, looked up: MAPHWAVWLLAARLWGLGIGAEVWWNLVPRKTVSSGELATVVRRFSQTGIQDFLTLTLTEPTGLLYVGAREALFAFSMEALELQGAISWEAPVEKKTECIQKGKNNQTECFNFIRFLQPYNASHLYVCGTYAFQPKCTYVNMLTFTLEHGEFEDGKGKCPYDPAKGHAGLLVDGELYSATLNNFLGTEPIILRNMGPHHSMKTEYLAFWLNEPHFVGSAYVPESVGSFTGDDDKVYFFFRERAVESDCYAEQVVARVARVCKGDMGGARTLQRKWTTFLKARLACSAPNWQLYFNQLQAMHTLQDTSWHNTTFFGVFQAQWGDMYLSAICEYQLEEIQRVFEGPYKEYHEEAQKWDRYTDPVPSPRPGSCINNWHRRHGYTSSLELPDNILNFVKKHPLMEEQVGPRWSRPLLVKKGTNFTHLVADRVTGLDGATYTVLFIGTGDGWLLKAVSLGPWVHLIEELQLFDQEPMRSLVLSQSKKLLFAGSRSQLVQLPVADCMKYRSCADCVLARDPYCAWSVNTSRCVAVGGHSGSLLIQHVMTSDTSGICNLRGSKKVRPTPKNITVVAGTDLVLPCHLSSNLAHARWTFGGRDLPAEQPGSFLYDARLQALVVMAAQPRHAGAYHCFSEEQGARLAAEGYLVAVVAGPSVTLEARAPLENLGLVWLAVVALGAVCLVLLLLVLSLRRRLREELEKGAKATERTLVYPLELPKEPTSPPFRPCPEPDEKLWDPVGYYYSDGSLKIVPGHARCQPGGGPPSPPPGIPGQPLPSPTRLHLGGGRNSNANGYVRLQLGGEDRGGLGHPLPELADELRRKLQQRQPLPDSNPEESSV
UniProt P61619, whole entry, looked up: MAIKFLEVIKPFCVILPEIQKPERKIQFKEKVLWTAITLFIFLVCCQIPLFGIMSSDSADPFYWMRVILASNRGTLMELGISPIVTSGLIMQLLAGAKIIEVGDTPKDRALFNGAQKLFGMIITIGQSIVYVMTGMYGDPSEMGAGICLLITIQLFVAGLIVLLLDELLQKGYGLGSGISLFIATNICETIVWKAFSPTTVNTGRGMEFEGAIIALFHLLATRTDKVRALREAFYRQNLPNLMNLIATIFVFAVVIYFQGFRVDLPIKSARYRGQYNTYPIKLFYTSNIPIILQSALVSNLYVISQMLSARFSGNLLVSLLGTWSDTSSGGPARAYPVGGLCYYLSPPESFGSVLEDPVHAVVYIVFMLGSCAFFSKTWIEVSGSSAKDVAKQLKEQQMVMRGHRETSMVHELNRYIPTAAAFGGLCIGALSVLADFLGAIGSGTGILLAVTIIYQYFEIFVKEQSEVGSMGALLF
UniProt Q99442: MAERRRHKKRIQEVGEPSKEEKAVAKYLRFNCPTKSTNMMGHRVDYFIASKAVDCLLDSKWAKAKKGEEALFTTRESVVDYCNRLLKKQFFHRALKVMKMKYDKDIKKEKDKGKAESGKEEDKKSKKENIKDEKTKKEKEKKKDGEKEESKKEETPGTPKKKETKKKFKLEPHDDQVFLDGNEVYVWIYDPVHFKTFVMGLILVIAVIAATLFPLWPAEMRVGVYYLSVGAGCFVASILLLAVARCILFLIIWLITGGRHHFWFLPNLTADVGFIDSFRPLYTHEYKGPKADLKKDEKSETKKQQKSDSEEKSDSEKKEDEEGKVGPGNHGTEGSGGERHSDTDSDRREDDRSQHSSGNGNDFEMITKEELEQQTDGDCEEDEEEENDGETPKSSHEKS
UniProt Q9BX95: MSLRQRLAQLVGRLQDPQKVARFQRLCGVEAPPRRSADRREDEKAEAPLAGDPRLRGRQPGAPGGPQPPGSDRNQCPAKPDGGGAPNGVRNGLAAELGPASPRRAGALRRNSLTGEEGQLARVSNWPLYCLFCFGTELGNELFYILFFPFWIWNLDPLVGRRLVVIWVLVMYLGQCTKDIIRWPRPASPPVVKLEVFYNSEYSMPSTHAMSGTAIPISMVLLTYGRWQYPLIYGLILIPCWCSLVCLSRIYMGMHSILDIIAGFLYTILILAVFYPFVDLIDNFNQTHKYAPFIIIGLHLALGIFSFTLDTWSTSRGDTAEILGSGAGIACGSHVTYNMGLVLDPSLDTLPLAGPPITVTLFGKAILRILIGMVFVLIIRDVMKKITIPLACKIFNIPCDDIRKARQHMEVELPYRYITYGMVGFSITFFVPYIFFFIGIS
UniProt O95562: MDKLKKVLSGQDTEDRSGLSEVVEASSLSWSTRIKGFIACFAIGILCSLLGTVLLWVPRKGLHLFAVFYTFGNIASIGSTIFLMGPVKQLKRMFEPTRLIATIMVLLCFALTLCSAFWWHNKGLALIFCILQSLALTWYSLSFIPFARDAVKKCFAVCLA
UniProt Q12872: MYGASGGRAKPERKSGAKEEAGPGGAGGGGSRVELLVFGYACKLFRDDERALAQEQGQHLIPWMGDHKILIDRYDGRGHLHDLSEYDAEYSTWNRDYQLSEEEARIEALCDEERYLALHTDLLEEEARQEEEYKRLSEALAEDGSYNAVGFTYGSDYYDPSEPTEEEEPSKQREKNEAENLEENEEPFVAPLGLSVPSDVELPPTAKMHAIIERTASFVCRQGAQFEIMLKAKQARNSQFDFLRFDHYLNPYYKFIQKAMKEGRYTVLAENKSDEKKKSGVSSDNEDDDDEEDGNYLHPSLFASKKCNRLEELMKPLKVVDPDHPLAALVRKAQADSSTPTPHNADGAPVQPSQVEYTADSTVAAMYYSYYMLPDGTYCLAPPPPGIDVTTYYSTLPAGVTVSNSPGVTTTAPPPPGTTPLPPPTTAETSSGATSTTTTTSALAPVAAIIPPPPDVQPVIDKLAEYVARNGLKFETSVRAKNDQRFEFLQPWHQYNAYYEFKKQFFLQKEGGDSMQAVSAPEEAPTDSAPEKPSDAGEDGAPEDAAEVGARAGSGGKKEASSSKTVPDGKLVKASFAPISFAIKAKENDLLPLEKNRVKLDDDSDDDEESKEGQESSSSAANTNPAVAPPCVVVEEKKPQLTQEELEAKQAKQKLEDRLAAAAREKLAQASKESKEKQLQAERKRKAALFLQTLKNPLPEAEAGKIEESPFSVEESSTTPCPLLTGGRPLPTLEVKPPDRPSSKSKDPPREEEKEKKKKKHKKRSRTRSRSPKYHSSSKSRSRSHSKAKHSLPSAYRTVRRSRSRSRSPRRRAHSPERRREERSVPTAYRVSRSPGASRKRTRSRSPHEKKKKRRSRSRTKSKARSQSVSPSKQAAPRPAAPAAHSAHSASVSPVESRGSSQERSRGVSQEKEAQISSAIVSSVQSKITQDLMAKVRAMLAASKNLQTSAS
UniProt O75533, whole entry, looked up: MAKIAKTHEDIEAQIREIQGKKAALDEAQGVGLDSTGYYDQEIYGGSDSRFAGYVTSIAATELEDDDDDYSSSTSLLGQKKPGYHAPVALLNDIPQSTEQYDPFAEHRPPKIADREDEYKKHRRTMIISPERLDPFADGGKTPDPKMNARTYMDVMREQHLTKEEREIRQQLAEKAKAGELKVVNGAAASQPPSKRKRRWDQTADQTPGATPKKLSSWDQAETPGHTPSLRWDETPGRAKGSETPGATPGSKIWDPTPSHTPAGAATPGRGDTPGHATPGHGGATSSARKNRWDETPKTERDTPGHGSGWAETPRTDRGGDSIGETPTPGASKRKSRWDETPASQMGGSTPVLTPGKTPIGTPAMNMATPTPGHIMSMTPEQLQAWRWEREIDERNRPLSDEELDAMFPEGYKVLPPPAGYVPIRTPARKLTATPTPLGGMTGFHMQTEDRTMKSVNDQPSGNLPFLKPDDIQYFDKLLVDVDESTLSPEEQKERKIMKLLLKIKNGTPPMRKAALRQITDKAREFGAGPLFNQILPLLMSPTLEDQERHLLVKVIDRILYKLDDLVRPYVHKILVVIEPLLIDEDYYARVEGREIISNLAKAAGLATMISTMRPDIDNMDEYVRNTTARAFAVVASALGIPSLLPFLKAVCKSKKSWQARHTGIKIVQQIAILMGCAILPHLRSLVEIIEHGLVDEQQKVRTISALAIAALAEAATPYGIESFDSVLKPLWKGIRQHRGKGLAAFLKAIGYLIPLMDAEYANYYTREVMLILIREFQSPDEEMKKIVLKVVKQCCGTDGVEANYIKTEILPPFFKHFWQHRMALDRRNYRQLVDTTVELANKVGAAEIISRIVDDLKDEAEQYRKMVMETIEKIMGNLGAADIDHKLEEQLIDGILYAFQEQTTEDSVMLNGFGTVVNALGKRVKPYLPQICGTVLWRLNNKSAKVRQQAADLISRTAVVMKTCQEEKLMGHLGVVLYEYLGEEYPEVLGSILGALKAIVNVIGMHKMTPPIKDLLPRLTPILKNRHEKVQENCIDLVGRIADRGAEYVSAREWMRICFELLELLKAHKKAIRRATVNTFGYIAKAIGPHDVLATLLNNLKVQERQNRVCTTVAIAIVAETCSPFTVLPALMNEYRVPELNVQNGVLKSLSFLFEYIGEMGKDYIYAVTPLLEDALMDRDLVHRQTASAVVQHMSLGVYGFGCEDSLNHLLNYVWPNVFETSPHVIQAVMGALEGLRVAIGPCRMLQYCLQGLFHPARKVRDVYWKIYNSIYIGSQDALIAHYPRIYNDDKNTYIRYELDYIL
UniProt P50453: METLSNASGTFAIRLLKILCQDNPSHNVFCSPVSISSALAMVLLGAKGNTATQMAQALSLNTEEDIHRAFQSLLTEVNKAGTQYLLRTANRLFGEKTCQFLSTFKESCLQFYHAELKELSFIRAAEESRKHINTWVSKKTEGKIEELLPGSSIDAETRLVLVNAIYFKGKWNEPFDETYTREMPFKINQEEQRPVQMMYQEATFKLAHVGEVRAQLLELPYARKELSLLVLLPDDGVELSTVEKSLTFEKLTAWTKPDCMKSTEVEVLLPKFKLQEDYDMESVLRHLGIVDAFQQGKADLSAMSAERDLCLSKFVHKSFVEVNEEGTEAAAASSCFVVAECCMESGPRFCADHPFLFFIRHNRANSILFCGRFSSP

How the values were obtained:
Assay in all cases: log2 fold change, soluble protein after heating vs DMSO (PISA); higher = thermal stabilisation; K562 cells, 10 uM, 30 min; active = over 0.2 and 3.5 SD of the protein, either way, in both replicates (recomputed)
[1] = compound: CC[C@@H]1C(=O)N(C)c2cnc(Nc3ccc(C(=O)NC4CCN(C)CC4)cc3OC)nc2N1C1CCCC1
Method in brief: (§1)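 For each measurement, 10 μM compound was applied for 30 min to K562 cells at 2×10^6 cells/mL. Aliquots were heated for 3 min across 48°C-58°C, pooled, and extracted in PBS with 0.5% NP-40 at 4°C; the supernatant after 21,000xg for 90 min was soluble protein. This was quantified by TMTpro 16plex LC-MS/MS with channel sums equalised, and thermal stability was reported relative to control samples from duplicates, on a log2 fold-change scale.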

volasertib = compound: CC[C@@H]1C(=O)N(C)c2cnc(Nc3ccc(C(=O)N[C@H]4CC[C@H](N5CCN(CC6CC6)CC5)CC4)cc3OC)nc2N1C(C)C [volasertib]
Method in brief: as §1

[2] = compound: CC[C@H](C)N1C=C(C2=C(C=C(C=C21)C3=CN=C(C=C3)N4CCNCC4)C(=O)NCC5=C(C=C(NC5=O)C)C)C
Method in brief: as §1

epoxomicin = compound: CC[C@H](C)[C@@H](C(=O)N[C@@H]([C@@H](C)O)C(=O)N[C@@H](CC(C)C)C(=O)[C@]1(CO1)C)NC(=O)[C@H]([C@@H](C)CC)N(C)C(=O)C [epoxomicin]
Method in brief: as §1

[3] = compound: CCn1c(C(=O)N(C2CC2)C2CC2)cc2c3c(ncn3C)c(Nc3cc(C)n(C)n3)nc21
Method in brief: as §1

[4] = compound: CCn1cc(-c2ccnc3[nH]c(-c4cccc(CN(C)C)c4)cc23)c(-c2ccc(NC(=O)N(C)C)cc2)n1
Method in brief: as §1

[5] = compound: CN(C)CC(=O)Nc1ccc2[nH]c(=O)c3ccccc3c2c1
Method in brief: as §1

rosiglitazone = compound: CN(CCOC1=CC=C(C=C1)C[C@H]2C(=O)NC(=O)S2)C3=CC=CC=N3 (racemic) [rosiglitazone]
Method in brief: as §1

[6] = compound: CN1C2=C(C3=C1C(=O)N(N=C3)CC4=CC(=CC=C4)N)SC(=C2)S(=O)C
Method in brief: as §1

[7] = compound: CN1CCC(CNc2ccc3ncc(-c4cccc(OC(F)(F)F)c4)n3n2)CC1
Method in brief: as §1

saracatinib = compound: CN1CCN(CCOc2cc(OC3CCOCC3)c3c(Nc4c(Cl)ccc5c4OCO5)ncnc3c2)CC1 [saracatinib]
Method in brief: as §1

sotrastaurin = compound: CN1CCN(c2nc(C3=C(c4c[nH]c5ccccc45)C(=O)NC3=O)c3ccccc3n2)CC1 [sotrastaurin]
Method in brief: as §1

alvocidib = compound: CN1CC[C@H](c2c(O)cc(O)c3c(=O)cc(-c4ccccc4Cl)oc23)[C@H](O)C1 [alvocidib]
Method in brief: as §1

Tubastatin A = compound: CN1CCc2c(c3ccccc3n2Cc2ccc(C(=O)NO)cc2)C1 [Tubastatin A]
Method in brief: as §1

[8] = compound: CNC(=O)C1=CC=CC=C1NC2=NC(=NC=C2Cl)NC3=C(C=C(C=C3)N4CCOCC4)OC
Method in brief: as §1

defactinib = compound: CNC(=O)c1ccc(Nc2ncc(C(F)(F)F)c(NCc3nccnc3N(C)S(C)(=O)=O)n2)cc1 [defactinib]
Method in brief: as §1

rucaparib = compound: CNCc1ccc(-c2[nH]c3cc(F)cc4c3c2CCNC4=O)cc1 [rucaparib]
Method in brief: as §1

[9] = compound: CNc1nc(-c2ccc3c(N)n[nH]c3c2)cc(N2C[C@@H](C(=O)NC3CCCCC3)CC[C@H]2C)n1
Method in brief: as §1

encorafenib = compound: COC(=O)N[C@@H](C)CNc1nccc(-c2cn(C(C)C)nc2-c2cc(Cl)cc(NS(C)(=O)=O)c2F)n1 [encorafenib]
Method in brief: as §1

[10] = compound: COC(=O)[C@H](CCSC)NC(=O)C1=C(C=C(C=C1)NC[C@H](CS)N)C2=CC=CC=C2
Method in brief: as §1

Measured: log2 fold change

SEPHS1 (UniProt P49903)
inactive: [1] 0.029 | volasertib 0.041 | [2] -0.026 | epoxomicin 0.022 | [3] 0.016 | [4] 0.004 | [5] 0.021 | rosiglitazone -0.003 | [6] -0.071 | [7] -0.006 | saracatinib -0.002 | sotrastaurin -0.048 | alvocidib -0.058 | Tubastatin A 0.017 | [8] -0.041 | defactinib -0.017 | rucaparib -0.052 | [9] 0.023 | encorafenib 0.004 | [10] 0.027

SERGEF (UniProt Q9UGK8)
inactive: [1] 0 | volasertib -0.008 | [2] -0.016 | epoxomicin -0.002 | [3] -0.027 | [4] 0.011 | [5] -0.006 | rosiglitazone -0.009 | [6] 0.076 | [7] -0.129 | saracatinib -0.021 | sotrastaurin -0.025 | alvocidib -0.155 | Tubastatin A -0.064 | [8] 0.008 | defactinib -0.061 | rucaparib -0.156 | [9] 0.151 | encorafenib 0.051 | [10] -0.067

SF1 isoform 5 (UniProt Q15637)
inactive: [1] 0.016 | volasertib 0.002 | [2] -0.003 | epoxomicin -0.005 | [3] -0.005 | [4] 0.029 | [5] 0.001 | rosiglitazone -0.011 | [6] -0.01 | [7] -0.025 | saracatinib 0.06 | sotrastaurin 0.008 | alvocidib -0.02 | Tubastatin A 0.005 | [8] -0.017 | defactinib -0.022 | rucaparib 0.003 | [9] -0.009 | encorafenib -0.025 | [10] 0.032

SEMA4C (UniProt Q9C0C4)
inactive: [1] -0.039 | volasertib -0.095 | [2] -0.019 | epoxomicin 0.018 | [3] -0.012 | [4] -0.018 | [5] -0.021 | rosiglitazone 0.015 | [6] -0.06 | [7] 0.022 | saracatinib 0.073 | sotrastaurin 0.016 | alvocidib -0.042 | Tubastatin A 0.021 | [8] -0.016 | defactinib -0.013 | rucaparib 0.014 | [9] 0.026 | encorafenib -0.064 | [10] 0.024

SEC61A1 (UniProt P61619)
inactive: [1] 0.046 | volasertib 0 | [2] -0.074 | epoxomicin -0.134 | [3] -0.021 | [4] 0.029 | [5] 0.003 | rosiglitazone 0.022 | [6] -0.079 | [7] 0.071 | saracatinib -0.018 | sotrastaurin 0.031 | alvocidib -0.018 | Tubastatin A -0.013 | [8] -0.02 | defactinib -0.014 | rucaparib 0.004 | [9] 0.009 | encorafenib 0.012 | [10] 0.013

SKA3 (UniProt Q8IX90)
inactive: [1] 0.045 | volasertib -0.014 | [2] 0.039 | epoxomicin -0.108 | [3] -0.094 | [4] -0.034 | [5] -0.139 | rosiglitazone 0 | [6] 0.239 | [7] 0.122 | saracatinib -0.045 | sotrastaurin -0.068 | alvocidib 0.078 | Tubastatin A 0.09 | [8] 0.03 | defactinib 0.033 | rucaparib 0.149 | [9] -0.015 | encorafenib 0.025 | [10] 0.124

SEPTIN9 (UniProt Q9UHD8)
inactive: [1] -0.001 | volasertib 0.011 | [2] 0.011 | epoxomicin 0.043 | [3] -0.021 | [4] -0.008 | [5] 0.021 | rosiglitazone 0.044 | [6] -0.045 | [7] -0.016 | saracatinib -0.032 | sotrastaurin 0.003 | alvocidib -0.048 | Tubastatin A -0.005 | [8] -0.018 | defactinib -0.019 | rucaparib -0.059 | [9] 0.016 | encorafenib -0.005 | [10] 0.017

SEC62 (UniProt Q99442)
inactive: [1] -0.029 | volasertib -0.018 | [2] -0.022 | epoxomicin -0.009 | [3] 0.018 | [4] -0.046 | [5] -0.007 | rosiglitazone -0.048 | [6] -0.047 | [7] 0.095 | saracatinib 0.057 | sotrastaurin 0.042 | alvocidib 0.002 | Tubastatin A -0.015 | [8] -0.034 | defactinib 0.021 | rucaparib 0.009 | [9] -0.011 | encorafenib -0.042 | [10] -0.009

Quoted from above (2 entries):
SERGEF (UniProt Q9UGK8)
inactive: [1] 0 | volasertib -0.008 | [2] -0.016 | epoxomicin -0.002 | [3] -0.027 | [4] 0.011 | [5] -0.006 | rosiglitazone -0.009 | [6] 0.076 | [7] -0.129 | saracatinib -0.021 | sotrastaurin -0.025 | alvocidib -0.155 | Tubastatin A -0.064 | [8] 0.008 | defactinib -0.061 | rucaparib -0.156 | [9] 0.151 | encorafenib 0.051 | [10] -0.067

SF1 isoform 5 (UniProt Q15637)
inactive: [1] 0.016 | volasertib 0.002 | [2] -0.003 | epoxomicin -0.005 | [3] -0.005 | [4] 0.029 | [5] 0.001 | rosiglitazone -0.011 | [6] -0.01 | [7] -0.025 | saracatinib 0.06 | sotrastaurin 0.008 | alvocidib -0.02 | Tubastatin A 0.005 | [8] -0.017 | defactinib -0.022 | rucaparib 0.003 | [9] -0.009 | encorafenib -0.025 | [10] 0.032

(listing goes on)

SGPP1 (UniProt Q9BX95)
inactive: [1] -0.023 | volasertib -0.037 | [2] 0.092 | epoxomicin -0.021 | [3] 0.019 | [4] -0.001 | [5] -0.003 | rosiglitazone 0.035 | [6] -0.008 | [7] -0.22 | saracatinib 0.115 | sotrastaurin -0.011 | alvocidib -0.05 | Tubastatin A -0.01 | [8] 0.049 | defactinib 0.004 | rucaparib -0.142 | [9] -0.082 | encorafenib 0 | [10] 0.046

SFT2D2 (UniProt O95562)
inactive: [1] -0.09 | volasertib 0.086 | [2] -0.127 | epoxomicin -0.017 | [3] 0.004 | [4] -0.013 | [5] 0.002 | rosiglitazone -0.043 | [6] -0.089 | [7] 0.113 | saracatinib 0.127 | sotrastaurin 0.066 | alvocidib -0.211 | Tubastatin A -0.067 | [8] -0.014 | defactinib -0.095 | rucaparib 0.107 | [9] 0.194 | encorafenib -0.259 | [10] 0.112

SFSWAP isoform 2 (UniProt Q12872)
inactive: [1] 0.059 | volasertib -0.231 | [2] 0.049 | epoxomicin 0.005 | [3] 0.019 | [4] 0.063 | [5] 0.038 | rosiglitazone -0.01 | [6] 0.008 | [7] 0 | saracatinib -0.024 | sotrastaurin -0.13 | alvocidib -0.126 | Tubastatin A 0.017 | [8] -0.114 | defactinib -0.085 | rucaparib 0.036 | [9] -0.051 | encorafenib 0.162 | [10] 0.044

SF3B1 (UniProt O75533)
inactive: [1] 0.004 | volasertib -0.179 | [2] 0.07 | epoxomicin -0.032 | [3] -0.078 | [4] -0.011 | [5] 0.039 | rosiglitazone 0.007 | [6] 0.061 | [7] 0.01 | saracatinib -0.051 | sotrastaurin -0.08 | alvocidib -0.055 | Tubastatin A 0.077 | [8] -0.062 | defactinib -0.095 | rucaparib 0.072 | [9] 0.015 | encorafenib 0.036 | [10] -0.046

SERPINB9 (UniProt P50453)
inactive: [1] -0.01 | volasertib 0.01 | [2] -0.004 | epoxomicin 0.041 | [3] 0.017 | [4] -0.039 | [5] -0.003 | rosiglitazone -0.015 | [6] -0.059 | [7] -0.002 | saracatinib 0.044 | sotrastaurin 0.002 | alvocidib -0.039 | Tubastatin A -0.012 | [8] -0.06 | defactinib -0.026 | rucaparib 0.007 | [9] -0.005 | encorafenib -0.013 | [10] 0.008

SF3A1 (UniProt Q15459)
inactive: [1] -0.006 | volasertib -0.08 | [2] 0.002 | epoxomicin -0.02 | [3] -0.055 | [4] 0.01 | [5] 0.007 | rosiglitazone 0.002 | [6] 0.008 | [7] 0.113 | saracatinib -0.026 | sotrastaurin -0.058 | alvocidib -0.001 | Tubastatin A 0.011 | [8] 0.021 | defactinib 0.052 | rucaparib 0.034 | [9] -0.023 | encorafenib 0.043 | [10] -0.051

SF1 isoform 6 (UniProt Q15637)
inactive: [1] -0.046 | volasertib -0.055 | [2] 0.006 | epoxomicin -0.092 | [3] -0.032 | [4] 0.004 | [5] -0.039 | rosiglitazone -0.025 | [6] -0.048 | [7] 0.001 | saracatinib 0.015 | sotrastaurin 0.012 | alvocidib -0.269 | Tubastatin A -0.125 | [8] 0.109 | defactinib -0.059 | rucaparib 0.095 | [9] 0.035 | encorafenib -0.142 | [10] -0.019
